No constants are given. Whether binding was seen depends on the method and setting. Some entries that bind do so weakly or less than the wild type.
Tests used:
[1] = target: Recombinant human IL-21 (human) (UniProt Q9HBE4); assay: SPR (Biacore T100), mAb immobilised, 100 nM IL-21 injected
[2] = target: Recombinant human IL-21 (human) (UniProt Q9HBE4); assay: Western blot
[3] = target: Recombinant human IL-21 (human) (UniProt Q9HBE4); assay: direct ELISA

Chains of the proteins cited; added tags and fusions are not shown. Lines headed by an entry give the natural chain unless they say otherwise; changes in a name come on top.
UniProt Q9HBE4: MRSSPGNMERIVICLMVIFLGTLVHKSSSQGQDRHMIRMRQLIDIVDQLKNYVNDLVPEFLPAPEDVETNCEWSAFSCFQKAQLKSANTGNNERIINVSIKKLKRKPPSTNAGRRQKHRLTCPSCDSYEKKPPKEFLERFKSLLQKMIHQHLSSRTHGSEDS

Measured: binding

B1: Human anti-human IL-21 monoclonal antibody clone 366.328.10 (antibody, V domains shown)
VH: EVQLVESGGGLVKPGGSLRLSCAASGFIFSSYSMNWVRQAPGKGLEWVSSITSGSYYIHYADSVKGRFTISRDNAKNSLYLQMNSLRAEDTAVYYCVRERGWGYYGMDVWGQGTTVTVSS
VL: AIQLTQSPSSLSASVGDRVTITCRASQDIDSALAWYQQKPGKAPKILIHDASSLESGVPSRFSGSGSGTDFTLTISSLQPEDFATYYCQQFNSYPYTFGQGTKLEIK
binds: all assays above

B2: Human anti-human IL-21 monoclonal antibody clone 366.552.11 (antibody, V domains shown)
VH: QVQLQESGPGLVKPSETLSLTCTVSGGSISSDFWGWIRQPPGKGLEWIGYISSRGSTNYNPSLKRRVTISVDTSRNQFSLKLSSVTAADTAVYYCARSAGVTDFDFWGQGTLVTVSS
VL: DIQMTQSPSSVSASVGDRVTITCRASQGISSWLAWYQHKPGKAPKLLIYVASSLQSGVPSRFSGSGSGTDFTLTISSLQPEDFATYYCQQANSFPLTFGGGTKVEIK
binds: all assays above
